These are yes or no findings as the source states them, for the method shown. Binding seen in cells or lysates may run through a third protein. Some binding calls cover weakened binding; strength is not graded here.
Molecular target: CBP (CREB binding protein) (UniProt P45481)
Assay: reciprocal co-immunoprecipitation from pN-Cad/CTF2-transfected L cell extract, Western blot

Protein sequences, listed by entry. Tags and fused reporters are not part of them. Residues count along the entry.
UniProt P45481, residues 2-2441: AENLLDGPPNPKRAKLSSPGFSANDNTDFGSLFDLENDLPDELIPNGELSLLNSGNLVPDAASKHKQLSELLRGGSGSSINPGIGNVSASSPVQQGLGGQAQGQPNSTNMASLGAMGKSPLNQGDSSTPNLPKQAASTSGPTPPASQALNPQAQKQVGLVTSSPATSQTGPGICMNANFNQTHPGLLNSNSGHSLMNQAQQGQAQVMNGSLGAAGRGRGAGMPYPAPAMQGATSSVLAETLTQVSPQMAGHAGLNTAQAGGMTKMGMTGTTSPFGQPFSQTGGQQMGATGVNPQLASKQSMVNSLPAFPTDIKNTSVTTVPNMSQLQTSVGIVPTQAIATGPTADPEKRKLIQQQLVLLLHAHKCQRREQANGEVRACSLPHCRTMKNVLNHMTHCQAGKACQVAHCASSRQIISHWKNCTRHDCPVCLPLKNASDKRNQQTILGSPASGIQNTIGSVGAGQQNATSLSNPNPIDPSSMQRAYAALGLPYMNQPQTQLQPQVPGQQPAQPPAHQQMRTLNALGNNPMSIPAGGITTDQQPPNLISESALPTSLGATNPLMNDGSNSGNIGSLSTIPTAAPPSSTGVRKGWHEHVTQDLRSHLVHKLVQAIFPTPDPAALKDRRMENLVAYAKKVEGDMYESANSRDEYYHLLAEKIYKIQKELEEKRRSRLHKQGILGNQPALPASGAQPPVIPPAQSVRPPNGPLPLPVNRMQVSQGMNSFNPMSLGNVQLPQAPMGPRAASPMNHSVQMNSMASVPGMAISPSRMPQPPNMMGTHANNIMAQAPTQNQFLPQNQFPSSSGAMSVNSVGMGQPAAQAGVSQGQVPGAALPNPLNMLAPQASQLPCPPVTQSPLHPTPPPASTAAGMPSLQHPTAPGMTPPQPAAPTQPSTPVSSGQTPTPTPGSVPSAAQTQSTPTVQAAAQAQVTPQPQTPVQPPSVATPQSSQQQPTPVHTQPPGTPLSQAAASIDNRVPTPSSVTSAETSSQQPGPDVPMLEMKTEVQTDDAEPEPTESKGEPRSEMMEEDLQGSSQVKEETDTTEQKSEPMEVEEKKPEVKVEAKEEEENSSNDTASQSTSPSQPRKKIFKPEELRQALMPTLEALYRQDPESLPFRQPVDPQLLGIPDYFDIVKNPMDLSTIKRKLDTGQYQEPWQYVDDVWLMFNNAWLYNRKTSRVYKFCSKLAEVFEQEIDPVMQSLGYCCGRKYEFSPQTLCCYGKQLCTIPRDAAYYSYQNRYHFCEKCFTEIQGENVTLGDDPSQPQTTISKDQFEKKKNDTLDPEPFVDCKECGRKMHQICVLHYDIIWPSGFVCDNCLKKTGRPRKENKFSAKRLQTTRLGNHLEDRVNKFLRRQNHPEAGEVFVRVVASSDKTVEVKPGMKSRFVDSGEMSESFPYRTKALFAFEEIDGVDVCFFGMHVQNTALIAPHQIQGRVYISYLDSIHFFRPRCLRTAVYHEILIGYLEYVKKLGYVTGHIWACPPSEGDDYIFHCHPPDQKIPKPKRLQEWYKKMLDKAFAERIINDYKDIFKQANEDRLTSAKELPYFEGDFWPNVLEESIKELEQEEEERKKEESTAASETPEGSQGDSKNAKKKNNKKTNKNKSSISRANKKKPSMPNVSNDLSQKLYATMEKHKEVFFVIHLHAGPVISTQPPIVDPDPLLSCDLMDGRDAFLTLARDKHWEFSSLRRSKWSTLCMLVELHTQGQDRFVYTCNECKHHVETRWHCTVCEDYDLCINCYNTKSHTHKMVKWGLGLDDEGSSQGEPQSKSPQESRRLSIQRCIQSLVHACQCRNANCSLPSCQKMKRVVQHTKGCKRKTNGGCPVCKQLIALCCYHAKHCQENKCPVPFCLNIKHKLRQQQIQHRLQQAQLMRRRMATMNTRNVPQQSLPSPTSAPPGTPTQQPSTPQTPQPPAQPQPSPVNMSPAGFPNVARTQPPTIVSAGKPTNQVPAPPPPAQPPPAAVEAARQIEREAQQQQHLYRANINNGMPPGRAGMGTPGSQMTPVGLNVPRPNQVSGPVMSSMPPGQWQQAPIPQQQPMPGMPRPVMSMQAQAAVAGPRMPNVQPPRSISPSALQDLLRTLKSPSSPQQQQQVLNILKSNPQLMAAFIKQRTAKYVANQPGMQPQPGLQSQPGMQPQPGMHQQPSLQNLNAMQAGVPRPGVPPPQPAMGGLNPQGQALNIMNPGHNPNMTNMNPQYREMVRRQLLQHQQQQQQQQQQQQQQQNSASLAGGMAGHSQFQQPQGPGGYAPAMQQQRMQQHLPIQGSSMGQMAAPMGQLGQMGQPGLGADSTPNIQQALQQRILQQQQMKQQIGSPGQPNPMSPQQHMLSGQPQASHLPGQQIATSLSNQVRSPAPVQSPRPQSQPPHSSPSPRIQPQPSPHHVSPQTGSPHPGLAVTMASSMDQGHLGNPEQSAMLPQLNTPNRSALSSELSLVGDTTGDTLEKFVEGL
UniProt P10288, residues 753-912: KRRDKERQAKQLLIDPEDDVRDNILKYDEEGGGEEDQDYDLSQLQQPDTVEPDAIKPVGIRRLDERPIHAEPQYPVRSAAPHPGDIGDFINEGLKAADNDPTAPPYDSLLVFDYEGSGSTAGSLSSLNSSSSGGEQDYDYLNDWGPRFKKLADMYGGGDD

Substance: N-Cad/CTF2 (chicken cytoplasmic domain of N-cadherin expressed from pN-Cad/CTF2) (from UniProt P10288 753-912)
- binding: binds
